# Measured values published in the supplement of paper PMC8728848.
# This is one part of the list.
# B1: LlpA (Burkholderia cenocepacia) (protein)
# chain: MGSSHHHHHHSSGLVPRGSHKILGSNETLSAGNVVYSDNGQYHLAMQTDGNLVVYGPTGAVWQSQTSGSGGNRAVMQGDGNLVIYRADNTAAWSSKTAHPGAFLAVQDDGNVVIYWPRPAWASNTSDPATQQSAESKYLASGSTMSAGQTVTVAQYMLVFQADGNLVLYKNGGNPIWSTGTQGKGATYAVMQSDGNFVIYAGSTALWSTKTNGANGAQLVLQSDGNLVIYAPTAAWSTKFGLVTAPTSTSTSNNGPGSGICVGVCPPHPLNGNPFSPVGVGTTGLGFPTPGYPGAAF
# Key:
# Test in all cases: glycan array binding signal (z-score within array); higher = stronger binding
# Details in all cases: glycan notation: IUPAC condensed, linker removed
# [1] = molecular target: Neu5Ac(a2-6)Gal(b1-4)GlcNAc(b1-2)Man(a1-3)[GlcNAc(b1-4)][Neu5Ac(a2-6)Gal(b1-4)GlcNAc(b1-2)Man(a1-6)]Man(b1-4)GlcNAc(b1-4)GlcNAc
# In short: (§1)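 The binding signal is a Z-score computed within each array. Data were drawn from 3228 arrays in the Consortium for Functional Glycomics database, restricted to those with a known protein sequence. Scores were averaged over arrays of the same protein sequence at different concentrations or buffers, and over linkers, and negative values can be taken as non-binding.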
# [2] = molecular target: Neu5Ac(a2-6)Gal(b1-4)GlcNAc(b1-2)Man(a1-3)[Man(a1-6)]Man(b1-4)GlcNAc(b1-4)GlcNAc
# In short: as §1
# [3] = molecular target: Neu5Ac(a2-6)Gal(b1-4)GlcNAc(b1-2)Man(a1-3)[Neu5Ac(a2-3)Gal(b1-4)GlcNAc(b1-2)Man(a1-6)]Man(b1-4)GlcNAc(b1-4)GlcNAc
# In short: as §1
# [4] = molecular target: Neu5Ac(a2-6)Gal(b1-4)GlcNAc(b1-2)Man(a1-3)[Neu5Ac(a2-6)Gal(b1-4)GlcNAc(b1-2)Man(a1-6)]Man(b1-4)GlcNAc(b1-4)GlcNAc
# In short: as §1
# [5] = molecular target: Neu5Ac(a2-6)Gal(b1-4)GlcNAc(b1-2)Man(a1-3)[Neu5Ac(a2-6)Gal(b1-4)GlcNAc(b1-2)Man(a1-6)]Man(b1-4)GlcNAc(b1-4)[Fuc(a1-6)]GlcNAc
# In short: as §1
# [6] = molecular target: Neu5Ac(a2-6)Gal(b1-4)GlcNAc(b1-2)Man(a1-6)Man(b1-4)GlcNAc(b1-4)GlcNAc
# In short: as §1
# [7] = molecular target: Neu5Ac(a2-6)Gal(b1-4)GlcNAc(b1-2)Man(a1-6)[Gal(b1-4)GlcNAc(b1-2)Man(a1-3)]Man(b1-4)GlcNAc(b1-4)GlcNAc
# In short: as §1
# [8] = molecular target: Neu5Ac(a2-6)Gal(b1-4)GlcNAc(b1-2)Man(a1-6)[GlcNAc(b1-2)Man(a1-3)]Man(b1-4)GlcNAc(b1-4)GlcNAc
# In short: as §1
# [9] = molecular target: Neu5Ac(a2-6)Gal(b1-4)GlcNAc(b1-2)Man(a1-6)[Man(a1-3)]Man(b1-4)GlcNAc(b1-4)GlcNAc
# In short: as §1
# [10] = molecular target: Neu5Ac(a2-6)Gal(b1-4)GlcNAc(b1-2)[Neu5Ac(a2-6)Gal(b1-4)GlcNAc(b1-4)]Man(a1-3)[GlcNAc(b1-4)][Neu5Ac(a2-6)Gal(b1-4)GlcNAc(b1-2)[Neu5Ac(a2-6)Gal(b1-4)GlcNAc(b1-6)]Man(a1-6)]Man(b1-4)GlcNAc(b1-4)GlcNAc
# In short: as §1
# [11] = molecular target: Neu5Ac(a2-6)Gal(b1-4)GlcNAc(b1-2)[Neu5Ac(a2-6)Gal(b1-4)GlcNAc(b1-4)]Man(a1-3)[GlcNAc(b1-4)][Neu5Ac(a2-6)Gal(b1-4)GlcNAc(b1-4)Man(a1-6)]Man(b1-4)GlcNAc(b1-4)GlcNAc
# In short: as §1
# [12] = molecular target: Neu5Ac(a2-6)Gal(b1-4)GlcNAc(b1-2)[Neu5Ac(a2-6)Gal(b1-4)GlcNAc(b1-6)]Man(a1-6)[Neu5Ac(a2-6)Gal(b1-4)GlcNAc(b1-2)Man(a1-3)][GlcNAc(b1-4)]Man(b1-4)GlcNAc(b1-4)GlcNAc
# In short: as §1
# [13] = molecular target: Neu5Ac(a2-6)Gal(b1-4)GlcNAc(b1-3)Gal(b1-3)GlcNAc
# In short: as §1
# [14] = molecular target: Neu5Ac(a2-6)Gal(b1-4)GlcNAc(b1-3)Gal(b1-4)GlcNAc
# In short: as §1
# [15] = molecular target: Neu5Ac(a2-6)Gal(b1-4)GlcNAc(b1-3)Gal(b1-4)GlcNAc(b1-2)Man(a1-3)[Neu5Ac(a2-6)Gal(b1-4)GlcNAc(b1-3)Gal(b1-4)GlcNAc(b1-2)Man(a1-6)]GalNAc
# In short: as §1
# [16] = molecular target: Neu5Ac(a2-6)Gal(b1-4)GlcNAc(b1-3)Gal(b1-4)GlcNAc(b1-3)Gal(b1-4)GlcNAc
# In short: as §1
# [17] = molecular target: Neu5Ac(a2-6)Gal(b1-4)GlcNAc(b1-3)Gal(b1-4)GlcNAc(b1-3)Gal(b1-4)GlcNAc(b1-2)Man(a1-3)[Neu5Ac(a2-6)Gal(b1-4)GlcNAc(b1-3)Gal(b1-4)GlcNAc(b1-3)Gal(b1-4)GlcNAc(b1-2)Man(a1-6)]GalNAc
# In short: as §1
# [18] = molecular target: Neu5Ac(a2-6)Gal(b1-4)GlcNAc(b1-3)Gal(b1-4)GlcNAc(b1-3)GalNAc
# In short: as §1
# [19] = molecular target: Neu5Ac(a2-6)Gal(b1-4)GlcNAc(b1-3)Gal(b1-4)GlcNAc(b1-3)[Neu5Ac(a2-6)Gal(b1-4)GlcNAc(b1-3)Gal(b1-4)GlcNAc(b1-6)]GalNAc
# In short: as §1
# [20] = molecular target: Neu5Ac(a2-6)Gal(b1-4)GlcNAc(b1-3)Gal(b1-4)GlcNAc(b1-6)[Gal(b1-3)]GalNAc
# In short: as §1
# [21] = molecular target: Neu5Ac(a2-6)Gal(b1-4)GlcNAc(b1-3)Gal(b1-4)[Fuc(a1-3)]GlcNAc(b1-3)Gal(b1-4)[Fuc(a1-3)]GlcNAc
# In short: as §1
# [22] = molecular target: Neu5Ac(a2-6)Gal(b1-4)GlcNAc(b1-3)GalNAc
# In short: as §1
# [23] = molecular target: Neu5Ac(a2-6)Gal(b1-4)GlcNAc(b1-3)[Neu5Ac(a2-6)Gal(b1-4)GlcNAc(b1-6)]GalNAc
# In short: as §1
# [24] = molecular target: Neu5Ac(a2-6)Gal(b1-4)GlcNAc(b1-6)GalNAc
# In short: as §1
# [25] = molecular target: Neu5Ac(a2-6)Gal(b1-4)GlcNAc(b1-6)[Gal(b1-3)GlcNAc(b1-3)]Gal(b1-4)Glc
# In short: as §1
# [26] = molecular target: Neu5Ac(a2-6)Gal(b1-4)GlcNAc(b1-6)[Gal(b1-3)]GalNAc
# In short: as §1
# [27] = molecular target: Neu5Ac(a2-6)Gal(b1-4)GlcNAc6S
# In short: as §1
# Neu5Ac(a2-6)GalNAc = molecular target: Neu5Ac(a2-6)GalNAc
# In short: as §1
# [28] = molecular target: Neu5Ac(a2-6)GalNAc(b1-4)GlcNAc
# In short: as §1
# [29] = molecular target: Neu5Ac(a2-6)GalNAc(b1-4)GlcNAc6S
# In short: as §1
# [30] = molecular target: Neu5Ac(a2-6)GlcNAc(b1-4)GlcNAc
# In short: as §1
binder,measurement,setting,value
B1,glycan array binding signal (z-score),[1],-0.897
same,glycan array binding signal (z-score),[2],0.308
same,glycan array binding signal (z-score),[3],0
same,glycan array binding signal (z-score),[4],0.281
same,glycan array binding signal (z-score),[5],1.78
same,glycan array binding signal (z-score),[6],0.594
same,glycan array binding signal (z-score),[7],-0.3
same,glycan array binding signal (z-score),[8],-0.988
same,glycan array binding signal (z-score),[9],0.702
same,glycan array binding signal (z-score),[10],-0.394
same,glycan array binding signal (z-score),[11],0.06
same,glycan array binding signal (z-score),[12],-0.012
same,glycan array binding signal (z-score),[13],-0.35
same,glycan array binding signal (z-score),[14],0.126
same,glycan array binding signal (z-score),[15],-0.456
same,glycan array binding signal (z-score),[16],-0.208
same,glycan array binding signal (z-score),[17],1.99
same,glycan array binding signal (z-score),[18],-1.03
same,glycan array binding signal (z-score),[19],0.83
same,glycan array binding signal (z-score),[20],-0.371
same,glycan array binding signal (z-score),[21],0.446
same,glycan array binding signal (z-score),[22],0.067
same,glycan array binding signal (z-score),[23],0.067
same,glycan array binding signal (z-score),[24],0.313
same,glycan array binding signal (z-score),[25],0.132
same,glycan array binding signal (z-score),[26],0.659
same,glycan array binding signal (z-score),[27],-0.965
same,glycan array binding signal (z-score),Neu5Ac(a2-6)GalNAc,-0.942
same,glycan array binding signal (z-score),[28],-1.32
same,glycan array binding signal (z-score),[29],0.676
same,glycan array binding signal (z-score),[30],-0.128

# 8 entries from above, with bars between the fields:
binder | measurement | setting | value
B1 | glycan array binding signal (z-score) | [4] | 0.281
same | glycan array binding signal (z-score) | [10] | -0.394
same | glycan array binding signal (z-score) | [19] | 0.83
same | glycan array binding signal (z-score) | [22] | 0.067
same | glycan array binding signal (z-score) | [23] | 0.067
same | glycan array binding signal (z-score) | [25] | 0.132
same | glycan array binding signal (z-score) | [26] | 0.659
same | glycan array binding signal (z-score) | [29] | 0.676
